Measured values published in US20090137411A1, “Methods and biochips for detecting small molecule compounds” (priority 2004, published 2009).

Assays:
[1] = test system: antibody that specifically binds to enrofloxacin, antibody that specifically binds to sulfimidine, antibody that specifically binds to streptomycin; experiment: Biochip competitive immunoassay for residual veterinary drugs; type: binding; conditions: detection system (biochip) for residual veterinary drugs
[2] = test system: anti-drug mouse monoclonal antibodies; experiment: Biochip competitive immunoassay for prohibited substances in urine; type: binding; conditions: lowest concentration detected by the chip, signal 3 SD lower than the mean of the negative control

| Compound | Linear range [1] | Sensitivity [1] | Detection limit [2] | Detection limit ([2]; listed as methadone) |
| --- | --- | --- | --- | --- |
| Cc1cc(C)nc(NS(=O)(=O)c2ccc(N)cc2)n1 [Sulfadimidine, sulfadimidine] | 0.5 to 20 ng/g | 0.5 ng/g |  |  |
| CCC(=O)C(CC(C)N(C)C)(c1ccccc1)c1ccccc1 (centres unmarked) [Methadone, methadone] |  |  | 19.0 µg/L | 19 µg/L |
| C[C@]12CC[C@H]3[C@@H](CCC4=CC(=O)CC[C@@]43C)[C@@H]1CC[C@@H]2O [Testosterone] |  |  | 0.4 µg/L |  |
| CC(N)Cc1ccccc1 (centres unmarked) [Amphetamine, amphetamine] |  |  | 2.0 µg/L |  |
| [H]/N=C(/N)N[C@H]1[C@H](O)[C@@H](O)[C@H](O[C@@H]2O[C@@H](C)[C@](O)(C=O)[C@H]2O[C@@H]2O[C@@H](CO)[C@H](O)[C@@H](O)[C@@H]2NC)[C@@H](N/C(N)=N\[H])[C@@H]1O [Streptomycin, streptomycin] | 5 to 200 ng/g | 5 ng/g |  |  |
| gentamicin |  |  | 1.1 µg/L |  |
| CCN1CCN(c2cc3c(cc2F)c(=O)c(C(=O)O)cn3C2CC2)CC1 [Enrofolxacin, enrofloxacin] | 1 to 50 ng/g | 1 ng/g |  |  |
| CN1CC[C@]23c4c5ccc(O)c4O[C@H]2[C@@H](O)C=C[C@H]3[C@H]1C5 [Morphine, morphine] |  |  | 0.2 µg/L |  |
| C[C@H]1O[C@@H](O[C@H]2[C@@H](O)C[C@H](O[C@H]3[C@@H](O)C[C@H](O[C@H]4CC[C@@]5(C)[C@H](CC[C@@H]6[C@@H]5C[C@@H](O)[C@]5(C)[C@@H](C7=CC(=O)OC7)CC[C@]65O)C4)O[C@@H]3C)O[C@@H]2C)C[C@H](O)[C@@H]1O [Digoxin, digoxin] |  |  | 1.0 µg/L |  |
| CN[C@@H](C)Cc1ccccc1 [Methamphetamine] |  |  | 3.1 µg/L |  |
